Results are given in words; binding and its absence hold for the method and conditions named. In cells and extracts the contact can be indirect. Some entries that bind do so weakly or less than the wild type. Tags and fused reporters may be left off the sequences shown.
Target: T1, GFP-Lac1 (fission yeast ceramide synthase subunit Lac1) (Schizosaccharomyces pombe) (UniProt O59735)
T1 sequence: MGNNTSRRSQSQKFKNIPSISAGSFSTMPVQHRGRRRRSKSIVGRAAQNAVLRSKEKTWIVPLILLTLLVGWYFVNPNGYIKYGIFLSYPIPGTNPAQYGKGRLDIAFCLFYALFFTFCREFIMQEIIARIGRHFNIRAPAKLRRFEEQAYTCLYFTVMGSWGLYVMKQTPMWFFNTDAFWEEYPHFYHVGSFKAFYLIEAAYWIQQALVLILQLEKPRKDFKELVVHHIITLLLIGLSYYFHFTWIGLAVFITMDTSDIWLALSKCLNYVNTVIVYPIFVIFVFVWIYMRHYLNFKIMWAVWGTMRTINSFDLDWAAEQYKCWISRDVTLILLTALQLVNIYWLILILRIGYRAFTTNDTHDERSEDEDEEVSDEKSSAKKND
Assay: co-IP; native co-immunoprecipitation on ER-enriched fractions solubilised with 1% digitonin in TNE buffer (50 mM Tris-HCl pH 7.5, 500 mM NaCl, 5 mM EDTA); GFP-Lac1 precipitated with GFP-Trap_A, 4 °C, 3 h; washes with TNE and 0.2% digitonin; Lag1-3xHA detected by anti-HA blot; single-tagged strains as controls

binding: binds
B1: Lag1-3xHA (fission yeast ceramide synthase subunit Lag1) (protein, UniProt P78970 1-390)
chain: MSNRKADEKHHMSSSSLTNDRSYIRNLSNRKTSISRKVPITRTLEDPSNFVAKDGTKLVQAPLFLLVWQKEICLSIIAICFACLLSPSLRPYAEPFIFLSYKQPDGSYGKGPKDACFPIFWVIVFTAFRVIVMDYVFRPFVLNWGVRNRKVIIRFCEQGYSFFYYLCFWFLGLYIYRSSNYWSNEEKLFEDYPQYYMSPLFKAYYLIQLGFWLQQILVLHLEQRRADHWQMFAHHIVTCALIILSYGFNFLRVGNAILYIFDLSDYILSGGKMLKYLGFGKICDYLFGIFVASWVYSRHYLFSKILRVVVTNAPEIIGGFHLDVPNGYIFNKPIYIAFIILLFTLQLLIYIWFGMIVKVAYRVFSGEEATDSRSDDEGEDEEASSTNEDK
